Measured values reported in US9920035B2, “Heterocyclic compounds, medicaments containing said compounds, use thereof and processes for the preparation thereof” (Boehringer Ingelheim International GmbH, priority 2011, dated 2018).
Structures were worked out from names or drawings and are uncertain.

Amino acid sequences for entries named in this document (tags omitted).
UniProt Q61180, whole entry: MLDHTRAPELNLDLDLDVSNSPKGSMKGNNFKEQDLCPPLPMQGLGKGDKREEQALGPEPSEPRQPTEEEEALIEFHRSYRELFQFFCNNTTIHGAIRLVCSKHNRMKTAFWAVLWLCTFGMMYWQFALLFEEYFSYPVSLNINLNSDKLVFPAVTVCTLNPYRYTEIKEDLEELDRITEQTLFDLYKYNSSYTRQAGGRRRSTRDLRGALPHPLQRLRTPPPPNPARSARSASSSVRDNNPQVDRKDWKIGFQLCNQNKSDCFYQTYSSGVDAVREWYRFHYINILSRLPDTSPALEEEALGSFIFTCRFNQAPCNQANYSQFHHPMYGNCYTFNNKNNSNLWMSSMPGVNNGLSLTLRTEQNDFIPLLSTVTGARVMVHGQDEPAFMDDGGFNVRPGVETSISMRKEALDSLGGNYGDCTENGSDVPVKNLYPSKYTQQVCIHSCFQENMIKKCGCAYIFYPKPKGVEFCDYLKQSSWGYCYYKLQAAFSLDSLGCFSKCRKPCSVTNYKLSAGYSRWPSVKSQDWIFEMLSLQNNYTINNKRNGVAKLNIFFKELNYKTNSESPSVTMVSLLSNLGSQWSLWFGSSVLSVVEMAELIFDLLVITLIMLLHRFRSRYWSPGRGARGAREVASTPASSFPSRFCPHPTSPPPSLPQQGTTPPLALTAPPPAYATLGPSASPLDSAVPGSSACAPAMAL
UniProt Q9WU38, whole entry: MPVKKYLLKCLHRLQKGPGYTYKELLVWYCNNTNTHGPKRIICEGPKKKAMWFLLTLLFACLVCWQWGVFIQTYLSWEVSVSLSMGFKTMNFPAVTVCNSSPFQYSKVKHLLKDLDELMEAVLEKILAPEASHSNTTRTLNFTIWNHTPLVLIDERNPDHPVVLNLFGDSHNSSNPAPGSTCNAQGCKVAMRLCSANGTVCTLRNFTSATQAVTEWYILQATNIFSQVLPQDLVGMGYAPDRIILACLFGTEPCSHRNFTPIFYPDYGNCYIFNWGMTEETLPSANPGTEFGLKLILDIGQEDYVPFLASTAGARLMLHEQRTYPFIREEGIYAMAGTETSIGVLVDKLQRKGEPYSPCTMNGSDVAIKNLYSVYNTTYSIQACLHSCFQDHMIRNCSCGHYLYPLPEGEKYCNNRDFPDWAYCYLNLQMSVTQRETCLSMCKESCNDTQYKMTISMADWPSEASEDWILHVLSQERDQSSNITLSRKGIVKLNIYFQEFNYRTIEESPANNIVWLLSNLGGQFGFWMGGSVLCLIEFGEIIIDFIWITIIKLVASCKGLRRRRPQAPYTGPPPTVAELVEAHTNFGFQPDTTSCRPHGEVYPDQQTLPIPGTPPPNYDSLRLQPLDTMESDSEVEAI
UniProt Q9WU39, whole entry: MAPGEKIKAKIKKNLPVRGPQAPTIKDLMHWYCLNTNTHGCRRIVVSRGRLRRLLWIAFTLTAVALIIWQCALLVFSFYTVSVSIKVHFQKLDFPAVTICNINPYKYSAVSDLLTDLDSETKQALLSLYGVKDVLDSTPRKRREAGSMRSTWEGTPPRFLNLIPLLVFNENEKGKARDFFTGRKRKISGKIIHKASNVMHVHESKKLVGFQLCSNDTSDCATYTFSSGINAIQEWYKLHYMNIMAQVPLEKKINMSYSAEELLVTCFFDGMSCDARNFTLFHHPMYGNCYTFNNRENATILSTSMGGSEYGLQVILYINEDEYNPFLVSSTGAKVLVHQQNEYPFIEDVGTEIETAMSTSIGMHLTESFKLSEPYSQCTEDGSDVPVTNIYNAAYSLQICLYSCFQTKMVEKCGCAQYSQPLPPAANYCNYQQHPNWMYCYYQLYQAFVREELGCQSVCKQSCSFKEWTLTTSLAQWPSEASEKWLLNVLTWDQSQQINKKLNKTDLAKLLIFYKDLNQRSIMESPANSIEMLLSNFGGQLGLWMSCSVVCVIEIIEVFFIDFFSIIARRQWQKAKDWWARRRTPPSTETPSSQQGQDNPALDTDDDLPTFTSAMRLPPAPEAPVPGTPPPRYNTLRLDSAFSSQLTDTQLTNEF

Target: epithelial sodium channel (ENaC) (Mus musculus, UniProt Q61180+Q9WU38+Q9WU39)
Assay: Ussing chamber: inhibition of amiloride sensitive short circuit current (I_sc) in M-1 cells
Format: cell-based
Settings: Mouse kidney M-1 cells on transwell filters, Ussing chamber at 37° C., compound added to the apical solution

Row | SMILES | IC50 [µM]
1 | CN(C)CCCNC(=O)N1CCC(CCc2ccccc2)(CNC(N)=NC(=O)c2nc(Cl)c(N)nc2N)CC1 | 0.023
2 | CC(C)(C)OC(=O)NCCNC(=O)N1CCC(CNC(N)=NC(=O)c2nc(Cl)c(N)nc2N)(Cc2ccccc2)CC1 | 0.011
3 | CN1CCC(NC(=O)N2CCC(CCc3ccccc3)(CNC(N)=NC(=O)c3nc(Cl)c(N)nc3N)CC2)CC1 | 0.046
4 | CC(C)(C)OC(=O)NCCC(=O)N1CCC(CNC(N)=NC(=O)c2nc(Cl)c(N)nc2N)(Cc2ccccc2)CC1 | 0.033

More lines, in order of falling IC50, values ahead:

Row | IC50 [µM] | SMILES
5 | 0.089 | CN1CCC(CNC(N)=NC(=O)c2nc(Cl)c(N)nc2N)(Cc2ccccc2)CC1
6 | 0.061 | CC(C)(C)OC(=O)N1CCC(CNC(N)=NC(=O)c2nc(Cl)c(N)nc2N)(Cc2ccccc2)CC1
7 | 0.029 | CN(C)CCNC(=O)N1CCC(CNC(N)=NC(=O)c2nc(Cl)c(N)nc2N)(Cc2ccccc2)CC1
